Measurements taken from paper PMC11053077, “HBO1 catalyzes lysine lactylation and mediates histone H3K9la to regulate gene transcription” (Nature Communications, 2024).
These are yes or no findings as the source states them, for the method shown. Binding seen in cells or lysates may run through a third protein. Some entries that bind do so weakly or less than the wild type.

Sequences of proteins named here, by UniProt entry; tags and fusion partners are left off.
UniProt O95251: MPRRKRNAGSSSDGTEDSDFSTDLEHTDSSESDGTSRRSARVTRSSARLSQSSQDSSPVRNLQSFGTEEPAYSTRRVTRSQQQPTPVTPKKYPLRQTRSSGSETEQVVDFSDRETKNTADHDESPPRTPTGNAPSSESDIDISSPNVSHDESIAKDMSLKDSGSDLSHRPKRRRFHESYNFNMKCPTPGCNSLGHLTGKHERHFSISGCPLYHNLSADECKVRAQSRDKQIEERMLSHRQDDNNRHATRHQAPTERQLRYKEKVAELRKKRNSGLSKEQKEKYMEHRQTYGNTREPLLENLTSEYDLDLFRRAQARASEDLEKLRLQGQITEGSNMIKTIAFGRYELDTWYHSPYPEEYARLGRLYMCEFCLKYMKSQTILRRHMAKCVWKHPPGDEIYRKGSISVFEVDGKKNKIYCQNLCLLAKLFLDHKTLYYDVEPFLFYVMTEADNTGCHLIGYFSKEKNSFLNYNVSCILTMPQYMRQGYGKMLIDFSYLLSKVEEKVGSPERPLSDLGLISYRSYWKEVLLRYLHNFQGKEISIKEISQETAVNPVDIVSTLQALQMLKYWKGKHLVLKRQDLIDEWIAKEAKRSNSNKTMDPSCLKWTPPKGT
UniProt Q6IE81: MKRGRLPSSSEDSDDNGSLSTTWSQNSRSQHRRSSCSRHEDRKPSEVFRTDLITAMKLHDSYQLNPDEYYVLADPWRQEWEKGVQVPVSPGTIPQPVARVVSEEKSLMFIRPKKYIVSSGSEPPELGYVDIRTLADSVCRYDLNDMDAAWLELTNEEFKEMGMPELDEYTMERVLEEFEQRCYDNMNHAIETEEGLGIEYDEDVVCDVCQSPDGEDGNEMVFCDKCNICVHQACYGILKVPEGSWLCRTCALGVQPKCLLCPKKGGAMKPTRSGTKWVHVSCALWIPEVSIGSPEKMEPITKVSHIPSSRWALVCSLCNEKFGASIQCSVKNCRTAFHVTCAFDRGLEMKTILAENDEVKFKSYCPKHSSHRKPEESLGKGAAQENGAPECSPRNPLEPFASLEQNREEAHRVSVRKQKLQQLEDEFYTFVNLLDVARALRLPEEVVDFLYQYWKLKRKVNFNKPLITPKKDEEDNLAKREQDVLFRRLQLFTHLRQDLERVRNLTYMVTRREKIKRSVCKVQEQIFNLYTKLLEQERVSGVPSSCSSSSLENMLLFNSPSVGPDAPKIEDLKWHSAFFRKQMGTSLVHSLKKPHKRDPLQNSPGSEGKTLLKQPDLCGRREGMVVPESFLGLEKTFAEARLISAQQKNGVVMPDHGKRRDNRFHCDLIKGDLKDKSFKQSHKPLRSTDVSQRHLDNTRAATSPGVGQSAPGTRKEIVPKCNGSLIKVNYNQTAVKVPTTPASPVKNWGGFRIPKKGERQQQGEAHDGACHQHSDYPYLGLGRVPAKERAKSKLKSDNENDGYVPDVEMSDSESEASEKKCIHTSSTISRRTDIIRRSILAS

Target: Flag-HBO1 (UniProt O95251)
Test: co-IP; Flag-HBO1 co-transfected with its scaffold protein in HEK293T; 48 h after transfection cells lysed (50 mM Tris-HCl pH 7.5, 150 mM NaCl, 1% Triton X-100, 1 mM EDTA, 1 mM DTT, 8% glycerol); supernatant on anti-Flag M2 beads overnight at 4 °C; washed 3 times with lysis buffer; eluted with Flag peptide

With Flag-JADE1 (from UniProt Q6IE81 1-842) the binding was “binds”.
